Measured values taken from patent US20230072083A1, “SYSTEM AND METHOD FOR SCREENING OF PROTEIN-LIGAND INTERACTIONS USING PARA-HYDROGEN POLARIZATION AND NMR” (THE TEXAS A&M UNIVERSITY SYSTEM, priority 2021, published 2023).

Tested on: trypsin
Assay: SABRE-hyperpolarized single-scan CPMG R2 relaxation of ligand 4-amidinopyridine with or without trypsin
Assay type: binding
Conditions: for R2 relaxation rate: no protein
Description: In the instant example, hydrogen gas enriched to a level of ˜50% para-content was prepared by passing room temperature hydrogen gas over iron (III) oxide spin-flip catalyst (Sigma-Aldrich, St. Louis, Mo.) in a heat exchanger, which was immersed in liquid nitrogen The ligand sample for hyperpolarization comprises 20 mM 4-amidinopyridine hydrochloride (Alfa Aesar, Ward Hill, Mass.) in methanol-d4 (Cambridge Isotope Libraries, Andover, Mass.) The sample contained 3.5 mM of the pre-catalyst [Ir(Me)(IMes)COD]Cl, which was synthesized according to a previously established protocol. For the experiments at low concentration, this stock solution of ligand was diluted to 1.5 mM and 0.3 mM catalyst. For the SABRE experiments, the para-enriched hydrogen was bubbled through the sample solution at a pressure of 8.3·10^5 Pa and at 294 K. Bubbling was performed for 30 s at a field of 6.5 mT generated by a solenoid coil (diameter 22 cm and length 28 cm). After this polarization transfer step, the sample was pushed to a sample loop using the pressure of the H2 gas. The hyperpolarized sample was injected into a NMR flow-cell concomitantly with a sample of 50 mM sodium phosphate buffer in D2O (pH 7.5), or a sample of trypsin (Alfa Aesar) at 1 mM or 18 μM dissolved in the same buffer. Where indicated, 2,2′-bipyridine (Sigma-Aldrich) at 10 mM or 2.5 mM concentration was included with the protein solution. The two solutions mixed in a Y-mixer before entering the magnet. The sample injector that was used for this purpose is described elsewhere. Briefly, both samples were pushed from an injection loop made of poly ether ether ketone (PEEK) tubing of 0.5 mm inner diameter. Two high pressure syringe pumps (Models 500D and 1000D, Teledyne Isco, Lincoln, Nebr.) were filled with water and used to transfer the sample from the injection loop to the Y-mixer and subsequently into the flow-cell. Flow rates were set to 110 ml/minute and 150 ml/minute, respectively. The injection time was 128 ms, during which the pump was active before sample mixing. […]

N=C(N)c1ccncc1 [4-amidinopyridine]
R2 relaxation rate (hyperpolarized ligand ~7 mM + catalyst + chelating ligand 2,2′-bipyridine): 0.86 ± 0.15 s⁻¹
R2 relaxation rate (hyperpolarized ligand ~7 mM + polarization transfer catalyst, no 2,2′-bipyridine): 2.30 ± 0.44 s⁻¹
R2 relaxation rate of free reporter ligand, R2,r^(f) (hyperpolarized, 144-160 μM, catalyst and 2,2′-bipyridine, absence of trypsin): 0.47 ± 0.01 s⁻¹
